Results published in the supplement of paper PMC12823440, “Inhibitors supercharge kinase turnover through native proteolytic circuits” (Nature, 2025).
Structures can show the parent of a compound that is named as a salt. The list shows a part of the results. The calls rarely recur for the same compound in another form.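 Kinases were expressed as nanoluciferase fusions in K562 cells and luminescence was read every 4 h between 2 and 18 h as percent of control, DMSO set to 100% and a positive control to 0%. A time point counts as decreased when the signal drops significantly (2 sigma). The hit call is the authors' own, does not follow from the count of time points alone, and its rule is not shown.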

Amino acid sequences for entries named in this document (tags omitted). A change or cut given only in a name is not applied to a line headed by its entry.
UniProt P31749: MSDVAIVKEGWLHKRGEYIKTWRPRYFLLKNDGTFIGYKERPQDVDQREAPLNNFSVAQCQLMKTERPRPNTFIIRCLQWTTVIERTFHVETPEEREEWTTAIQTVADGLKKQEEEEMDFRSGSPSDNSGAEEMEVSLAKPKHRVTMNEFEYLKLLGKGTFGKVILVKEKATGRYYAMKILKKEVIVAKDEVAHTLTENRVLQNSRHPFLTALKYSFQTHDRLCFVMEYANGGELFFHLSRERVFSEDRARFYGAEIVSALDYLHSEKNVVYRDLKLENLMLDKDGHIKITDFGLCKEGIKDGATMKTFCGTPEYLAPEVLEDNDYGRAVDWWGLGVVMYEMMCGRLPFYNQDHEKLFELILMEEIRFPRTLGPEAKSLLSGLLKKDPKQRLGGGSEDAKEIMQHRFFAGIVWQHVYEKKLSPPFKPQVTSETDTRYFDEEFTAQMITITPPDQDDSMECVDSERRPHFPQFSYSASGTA
UniProt P10398: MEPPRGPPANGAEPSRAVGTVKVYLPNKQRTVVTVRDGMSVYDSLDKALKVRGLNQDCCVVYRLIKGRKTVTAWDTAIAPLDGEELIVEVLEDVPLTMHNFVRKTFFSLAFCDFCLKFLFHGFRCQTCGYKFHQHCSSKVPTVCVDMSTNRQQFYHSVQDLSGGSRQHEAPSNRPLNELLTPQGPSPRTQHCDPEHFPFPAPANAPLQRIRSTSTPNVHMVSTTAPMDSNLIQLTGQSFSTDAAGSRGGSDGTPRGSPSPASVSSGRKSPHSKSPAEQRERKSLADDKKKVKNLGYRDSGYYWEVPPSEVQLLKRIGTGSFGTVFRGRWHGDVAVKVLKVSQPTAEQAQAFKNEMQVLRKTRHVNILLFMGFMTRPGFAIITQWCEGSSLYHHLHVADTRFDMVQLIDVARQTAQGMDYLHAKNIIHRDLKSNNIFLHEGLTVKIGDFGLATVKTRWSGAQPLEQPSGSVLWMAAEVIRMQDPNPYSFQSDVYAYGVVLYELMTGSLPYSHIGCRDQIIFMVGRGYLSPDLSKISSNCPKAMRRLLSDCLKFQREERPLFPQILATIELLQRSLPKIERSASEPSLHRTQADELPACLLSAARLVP
UniProt O14965: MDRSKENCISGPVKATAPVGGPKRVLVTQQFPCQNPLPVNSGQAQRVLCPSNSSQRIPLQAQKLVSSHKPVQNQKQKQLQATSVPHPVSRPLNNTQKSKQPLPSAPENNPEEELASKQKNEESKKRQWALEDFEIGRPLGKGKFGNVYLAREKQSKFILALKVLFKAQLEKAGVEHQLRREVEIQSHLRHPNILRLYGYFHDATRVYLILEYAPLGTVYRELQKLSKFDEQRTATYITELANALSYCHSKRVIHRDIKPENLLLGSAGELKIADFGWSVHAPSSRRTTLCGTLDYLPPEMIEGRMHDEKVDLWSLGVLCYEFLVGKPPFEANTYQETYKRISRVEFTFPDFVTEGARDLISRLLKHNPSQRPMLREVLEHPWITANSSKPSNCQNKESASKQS
UniProt Q96GD4, whole entry: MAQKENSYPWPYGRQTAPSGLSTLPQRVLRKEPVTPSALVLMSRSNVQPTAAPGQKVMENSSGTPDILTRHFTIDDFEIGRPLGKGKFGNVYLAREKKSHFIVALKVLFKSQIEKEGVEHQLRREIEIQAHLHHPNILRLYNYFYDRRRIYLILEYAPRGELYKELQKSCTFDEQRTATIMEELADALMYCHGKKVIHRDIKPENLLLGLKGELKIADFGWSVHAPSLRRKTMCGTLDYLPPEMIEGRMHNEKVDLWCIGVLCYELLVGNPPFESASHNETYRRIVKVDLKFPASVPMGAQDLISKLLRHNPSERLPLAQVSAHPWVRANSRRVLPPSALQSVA
UniProt Q9UQB9: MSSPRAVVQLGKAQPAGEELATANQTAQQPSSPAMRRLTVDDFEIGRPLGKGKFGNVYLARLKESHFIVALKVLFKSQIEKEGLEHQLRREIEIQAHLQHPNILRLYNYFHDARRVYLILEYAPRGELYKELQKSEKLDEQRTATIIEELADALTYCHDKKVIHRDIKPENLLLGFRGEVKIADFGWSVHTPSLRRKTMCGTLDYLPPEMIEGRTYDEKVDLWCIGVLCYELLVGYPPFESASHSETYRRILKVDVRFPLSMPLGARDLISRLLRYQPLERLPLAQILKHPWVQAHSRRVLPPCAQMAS
UniProt P51451: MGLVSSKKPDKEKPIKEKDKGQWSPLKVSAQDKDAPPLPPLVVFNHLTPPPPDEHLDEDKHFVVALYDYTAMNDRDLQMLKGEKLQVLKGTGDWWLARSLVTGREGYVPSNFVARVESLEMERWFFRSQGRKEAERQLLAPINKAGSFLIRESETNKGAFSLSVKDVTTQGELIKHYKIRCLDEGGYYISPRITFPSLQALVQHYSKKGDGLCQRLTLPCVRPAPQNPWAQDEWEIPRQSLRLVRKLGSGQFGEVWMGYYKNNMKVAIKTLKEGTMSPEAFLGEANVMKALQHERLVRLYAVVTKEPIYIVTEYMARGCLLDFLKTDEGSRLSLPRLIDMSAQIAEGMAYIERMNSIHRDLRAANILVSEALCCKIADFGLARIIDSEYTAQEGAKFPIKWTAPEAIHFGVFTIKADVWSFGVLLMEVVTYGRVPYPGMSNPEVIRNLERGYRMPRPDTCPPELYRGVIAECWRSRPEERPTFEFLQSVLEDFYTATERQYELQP
UniProt Q06187: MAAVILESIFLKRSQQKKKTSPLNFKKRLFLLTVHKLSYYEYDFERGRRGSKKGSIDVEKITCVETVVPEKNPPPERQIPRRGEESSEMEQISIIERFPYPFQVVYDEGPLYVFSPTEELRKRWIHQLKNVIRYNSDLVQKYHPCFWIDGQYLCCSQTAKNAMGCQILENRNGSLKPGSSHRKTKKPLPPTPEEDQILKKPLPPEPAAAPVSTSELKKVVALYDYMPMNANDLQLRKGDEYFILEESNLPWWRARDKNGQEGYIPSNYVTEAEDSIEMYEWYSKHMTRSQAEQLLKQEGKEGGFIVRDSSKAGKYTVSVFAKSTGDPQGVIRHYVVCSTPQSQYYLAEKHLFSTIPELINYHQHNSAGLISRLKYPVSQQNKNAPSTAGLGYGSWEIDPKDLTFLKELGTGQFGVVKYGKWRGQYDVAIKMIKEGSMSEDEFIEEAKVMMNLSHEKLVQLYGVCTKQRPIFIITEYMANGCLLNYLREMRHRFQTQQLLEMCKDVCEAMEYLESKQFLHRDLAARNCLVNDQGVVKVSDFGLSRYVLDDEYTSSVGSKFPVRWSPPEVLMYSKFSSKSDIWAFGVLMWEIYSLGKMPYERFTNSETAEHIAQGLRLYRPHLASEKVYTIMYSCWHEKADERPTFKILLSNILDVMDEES
UniProt Q9UQM7, whole entry: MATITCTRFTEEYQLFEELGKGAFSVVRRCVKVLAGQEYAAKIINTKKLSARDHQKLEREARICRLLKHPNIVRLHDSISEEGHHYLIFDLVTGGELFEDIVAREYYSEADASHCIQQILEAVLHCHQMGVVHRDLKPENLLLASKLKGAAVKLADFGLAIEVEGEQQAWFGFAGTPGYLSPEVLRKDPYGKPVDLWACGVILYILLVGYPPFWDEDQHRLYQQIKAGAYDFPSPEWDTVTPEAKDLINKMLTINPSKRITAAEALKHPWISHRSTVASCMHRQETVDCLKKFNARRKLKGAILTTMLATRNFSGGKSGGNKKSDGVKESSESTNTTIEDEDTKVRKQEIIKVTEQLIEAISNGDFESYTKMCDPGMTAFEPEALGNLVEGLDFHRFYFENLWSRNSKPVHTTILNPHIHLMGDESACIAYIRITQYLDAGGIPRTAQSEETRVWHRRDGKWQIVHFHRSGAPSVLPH
UniProt Q13555: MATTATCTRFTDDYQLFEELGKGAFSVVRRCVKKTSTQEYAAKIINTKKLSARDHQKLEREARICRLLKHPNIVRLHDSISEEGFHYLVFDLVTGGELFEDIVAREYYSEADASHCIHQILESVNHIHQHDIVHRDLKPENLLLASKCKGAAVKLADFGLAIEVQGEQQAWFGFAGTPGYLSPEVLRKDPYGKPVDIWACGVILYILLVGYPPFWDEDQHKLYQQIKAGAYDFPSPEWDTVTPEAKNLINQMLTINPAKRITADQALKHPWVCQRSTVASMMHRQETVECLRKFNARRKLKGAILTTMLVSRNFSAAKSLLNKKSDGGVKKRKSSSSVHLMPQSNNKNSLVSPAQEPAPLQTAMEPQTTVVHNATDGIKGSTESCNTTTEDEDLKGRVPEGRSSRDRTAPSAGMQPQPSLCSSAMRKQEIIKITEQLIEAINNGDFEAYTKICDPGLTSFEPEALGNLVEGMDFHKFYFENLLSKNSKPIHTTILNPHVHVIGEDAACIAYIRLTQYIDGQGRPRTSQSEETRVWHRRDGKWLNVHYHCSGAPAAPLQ
UniProt Q15131: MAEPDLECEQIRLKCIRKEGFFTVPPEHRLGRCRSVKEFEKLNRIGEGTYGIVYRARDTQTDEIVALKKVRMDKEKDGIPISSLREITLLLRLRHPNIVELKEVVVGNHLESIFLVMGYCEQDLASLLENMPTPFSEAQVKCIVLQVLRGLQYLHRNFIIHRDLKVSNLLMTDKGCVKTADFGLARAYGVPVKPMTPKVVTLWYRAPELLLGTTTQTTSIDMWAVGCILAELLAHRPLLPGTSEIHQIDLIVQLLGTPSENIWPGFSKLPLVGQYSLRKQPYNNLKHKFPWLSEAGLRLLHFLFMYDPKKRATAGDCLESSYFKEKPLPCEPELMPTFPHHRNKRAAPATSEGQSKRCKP
UniProt Q00526: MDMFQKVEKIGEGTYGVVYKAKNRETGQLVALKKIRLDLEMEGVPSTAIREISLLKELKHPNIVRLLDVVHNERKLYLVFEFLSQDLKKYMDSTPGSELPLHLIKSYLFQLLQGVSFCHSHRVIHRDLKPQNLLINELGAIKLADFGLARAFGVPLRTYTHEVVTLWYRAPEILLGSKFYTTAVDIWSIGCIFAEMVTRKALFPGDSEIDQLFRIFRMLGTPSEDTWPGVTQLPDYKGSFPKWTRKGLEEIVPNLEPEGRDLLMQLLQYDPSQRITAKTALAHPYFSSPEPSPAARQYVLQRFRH
UniProt P11802: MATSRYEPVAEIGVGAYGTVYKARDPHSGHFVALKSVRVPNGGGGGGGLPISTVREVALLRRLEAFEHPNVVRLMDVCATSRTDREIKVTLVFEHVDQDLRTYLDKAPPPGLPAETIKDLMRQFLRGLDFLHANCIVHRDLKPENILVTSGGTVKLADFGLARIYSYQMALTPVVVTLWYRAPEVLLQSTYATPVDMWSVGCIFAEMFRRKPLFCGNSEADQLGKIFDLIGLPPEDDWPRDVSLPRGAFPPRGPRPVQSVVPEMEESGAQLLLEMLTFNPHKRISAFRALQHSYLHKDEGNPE
UniProt Q00535, whole entry, looked up: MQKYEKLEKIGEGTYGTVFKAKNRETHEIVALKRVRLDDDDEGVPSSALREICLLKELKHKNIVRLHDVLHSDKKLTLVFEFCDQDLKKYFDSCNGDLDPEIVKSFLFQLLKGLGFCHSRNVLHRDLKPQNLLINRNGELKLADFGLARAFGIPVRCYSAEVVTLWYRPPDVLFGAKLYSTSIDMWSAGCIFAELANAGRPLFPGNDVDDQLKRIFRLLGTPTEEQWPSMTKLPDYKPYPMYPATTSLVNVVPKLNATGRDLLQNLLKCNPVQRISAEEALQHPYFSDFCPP
UniProt Q00534, whole entry: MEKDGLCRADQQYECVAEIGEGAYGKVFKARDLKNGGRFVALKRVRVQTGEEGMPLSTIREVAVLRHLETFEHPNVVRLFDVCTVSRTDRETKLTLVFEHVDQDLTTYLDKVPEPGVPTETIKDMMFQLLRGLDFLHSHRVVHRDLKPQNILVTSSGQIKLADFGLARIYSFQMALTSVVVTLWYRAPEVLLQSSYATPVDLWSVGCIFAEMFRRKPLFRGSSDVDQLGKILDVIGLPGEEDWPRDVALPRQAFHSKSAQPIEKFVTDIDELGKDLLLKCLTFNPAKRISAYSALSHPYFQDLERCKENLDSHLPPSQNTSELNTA

Columns and labels:
Assay in all cases: kinase-Nluc reporter destabilization hit call (1 = scored as downregulated) (binary); higher = compound decreases kinase abundance
Conditions in all cases: K562; 2-18 h
ABL1 = ABL1 (UniProt P00519)
AKT1 = AKT1 (UniProt P31749)
ALK = ALK (UniProt Q9UM73)
ARAF = ARAF (UniProt P10398)
AURKA = AURKA (UniProt O14965)
AURKB = AURKB (UniProt Q96GD4)
AURKC = AURKC (UniProt Q9UQB9)
BLK = BLK (UniProt P51451)
BMX = BMX (UniProt P51813)
BRAF = BRAF (UniProt P15056)
BRAF_V600E = system: BRAF_V600E
BTK = BTK (UniProt Q06187)
CAMK2A = CAMK2A (UniProt Q9UQM7)
CAMK2G = CAMK2G (UniProt Q13555)
CDK10 = CDK10 (UniProt Q15131)
CDK2 = CDK2 (UniProt P24941)
CDK3 = CDK3 (UniProt Q00526)
CDK4 = CDK4 (UniProt P11802)
CDK5 = CDK5 (UniProt Q00535)
CDK6 = CDK6 (UniProt Q00534)

Measured: kinase-Nluc reporter destabilization hit call

CN1CCC(Nc2ccc(C(=O)Nc3cc(-c4ccc5c(c4)OCO5)[nH]n3)cc2)CC1 (10 µM)
inactive: ABL1 = 0 | AKT1 = 0 | ALK 0 | ARAF 0 | AURKA 0 | AURKB 0 | AURKC 0 | BLK 0 | BMX 0 | BRAF 0 | BRAF_V600E 0 | BTK 0 | CAMK2A 0 | CAMK2G 0 | CDK10 = 0 | CDK2 = 0 | CDK3 = 0 | CDK4 = 0 | CDK5 = 0 | CDK6 = 0

CNC(=O)CN1CCC(Oc2cc3c(Nc4cccc(Cl)c4F)ncnc3cc2OC)CC1 [Sapitinib] (10 µM)
inactive: ABL1 = 0 | AKT1 = 0 | ALK 0 | ARAF 0 | AURKA 0 | AURKB 0 | AURKC 0 | BLK 0 | BMX 0 | BRAF 0 | BRAF_V600E 0 | BTK 0 | CAMK2A 0 | CAMK2G 0 | CDK10 = 0 | CDK2 = 0 | CDK3 = 0 | CDK4 = 0 | CDK5 = 0 | CDK6 = 0

CNCc1ccccc1Sc1cccc2ccccc12 [IFN alpha-IFNAR-IN-1 (hydrochloride)] (10 µM)
inactive: ABL1 = 0 | AKT1 = 0 | ALK 0 | ARAF 0 | AURKA 0 | AURKB 0 | AURKC 0 | BLK 0 | BMX 0 | BRAF 0 | BRAF_V600E 0 | BTK 0 | CAMK2A 0 | CAMK2G 0 | CDK10 = 0 | CDK2 = 0 | CDK3 = 0 | CDK4 = 0 | CDK5 = 0 | CDK6 = 0

CCCCC(=O)OCC(=O)[C@]1(O)Cc2c(O)c3c(c(O)c2[C@@H](O[C@H]2C[C@H](NC(=O)C(F)(F)F)[C@H](O)[C@H](C)O2)C1)C(=O)c1c(OC)cccc1C3=O [Valrubicin] (10 µM)
inactive: ABL1 = 0 | AKT1 = 0 | ALK 0 | ARAF 0 | AURKA 0 | AURKB 0 | AURKC 0 | BLK 0 | BMX 0 | BRAF 0 | BRAF_V600E 0 | BTK 0 | CAMK2A 0 | CAMK2G 0 | CDK10 = 0 | CDK2 = 0 | CDK3 = 0 | CDK4 = 0 | CDK5 = 0 | CDK6 = 0

CC(C)=CCC[C@](C)(O[C@@H]1O[C@H](CO[C@@H]2O[C@H](CO)[C@@H](O)[C@H](O)[C@H]2O)[C@@H](O)[C@H](O)[C@H]1O)[C@H]1CC[C@]2(C)[C@@H]1[C@H](O)C[C@@H]1[C@@]3(C)CC[C@H](O[C@@H]4O[C@H](CO)[C@@H](O)[C@H](O)[C@H]4O[C@@H]4O[C@H](CO)[C@@H](O)[C@H](O)[C@H]4O)C(C)(C)[C@@H]3CC[C@]12C [Ginsenoside Rb1] (10 µM)
inactive: ABL1 = 0 | AKT1 = 0 | ALK 0 | ARAF 0 | AURKA 0 | AURKB 0 | AURKC 0 | BLK 0 | BMX 0 | BRAF 0 | BRAF_V600E 0 | BTK 0 | CAMK2A 0 | CAMK2G 0 | CDK10 = 0 | CDK2 = 0 | CDK3 = 0 | CDK4 = 0 | CDK5 = 0 | CDK6 = 0

CCOc1cc(N2CCC(O)CC2)ccc1Nc1ncc2c(n1)N(C1CCCC1)CCC(=O)N2C (2.5 µM)
inactive: ABL1 = 0 | AKT1 = 0 | ALK 0 | ARAF 0 | AURKA 0 | AURKB 0 | AURKC 0 | BLK 0 | BMX 0 | BRAF 0 | BRAF_V600E 0 | BTK 0 | CAMK2A 0 | CAMK2G 0 | CDK10 = 0 | CDK2 = 0 | CDK3 = 0 | CDK4 = 0 | CDK5 = 0 | CDK6 = 0

CC(C)(C)S(=O)(=O)c1cc2c(Nc3ccc4scnc4c3)ncnc2cc1OCCOP(=O)(O)O (2 µM)
inactive: ABL1 = 0 | AKT1 = 0 | ALK 0 | ARAF 0 | AURKA 0 | AURKB 0 | AURKC 0 | BLK 0 | BMX 0 | BRAF 0 | BRAF_V600E 0 | BTK 0 | CAMK2A 0 | CAMK2G 0 | CDK10 = 0 | CDK2 = 0 | CDK3 = 0 | CDK4 = 0 | CDK5 = 0 | CDK6 = 0

CC(=O)Nc1nc(C)c(-c2cc(C)c3c(c2)CN([C@@H](C)C2CC2)C3=O)s1 (10 µM)
inactive: ABL1 = 0 | AKT1 = 0 | ALK 0 | ARAF 0 | AURKA 0 | AURKB 0 | AURKC 0 | BLK 0 | BMX 0 | BRAF 0 | BRAF_V600E 0 | BTK 0 | CAMK2A 0 | CAMK2G 0 | CDK10 = 0 | CDK2 = 0 | CDK3 = 0 | CDK4 = 0 | CDK5 = 0 | CDK6 = 0

Retrieved one by one from the list above, two records:
CN1CCC(Nc2ccc(C(=O)Nc3cc(-c4ccc5c(c4)OCO5)[nH]n3)cc2)CC1 (10 µM)
inactive: ABL1 = 0 | AKT1 = 0 | ALK 0 | ARAF 0 | AURKA 0 | AURKB 0 | AURKC 0 | BLK 0 | BMX 0 | BRAF 0 | BRAF_V600E 0 | BTK 0 | CAMK2A 0 | CAMK2G 0 | CDK10 = 0 | CDK2 = 0 | CDK3 = 0 | CDK4 = 0 | CDK5 = 0 | CDK6 = 0

CNC(=O)CN1CCC(Oc2cc3c(Nc4cccc(Cl)c4F)ncnc3cc2OC)CC1 [Sapitinib] (10 µM)
inactive: ABL1 = 0 | AKT1 = 0 | ALK 0 | ARAF 0 | AURKA 0 | AURKB 0 | AURKC 0 | BLK 0 | BMX 0 | BRAF 0 | BRAF_V600E 0 | BTK 0 | CAMK2A 0 | CAMK2G 0 | CDK10 = 0 | CDK2 = 0 | CDK3 = 0 | CDK4 = 0 | CDK5 = 0 | CDK6 = 0

Remaining list, next part.

CC(C)Cn1ncc2cc(Oc3ccc(F)cc3F)c(C(=O)NCCN(C)C)cc21 [p38α inhibitor 1] (10 µM)
inactive: ABL1 = 0 | AKT1 = 0 | ALK 0 | ARAF 0 | AURKA 0 | AURKB 0 | AURKC 0 | BLK 0 | BMX 0 | BRAF 0 | BRAF_V600E 0 | BTK 0 | CAMK2A 0 | CAMK2G 0 | CDK10 = 0 | CDK2 = 0 | CDK3 = 0 | CDK4 = 0 | CDK5 = 0 | CDK6 = 0

CCOC(=O)c1c(Nc2ccccc2Cl)oc(/C=C2\C=Nc3ncccc32)c1O (10 µM)
inactive: ABL1 = 0 | AKT1 = 0 | ALK 0 | ARAF 0 | AURKA 0 | AURKB 0 | AURKC 0 | BLK 0 | BMX 0 | BRAF 0 | BRAF_V600E 0 | BTK 0 | CAMK2A 0 | CAMK2G 0 | CDK10 = 0 | CDK2 = 0 | CDK3 = 0 | CDK4 = 0 | CDK5 = 0 | CDK6 = 0

COc1cc(N2CCC(O)CC2)ccc1Nc1nc(Nc2ccccc2S(=O)(=O)C(C)C)c2[nH]cnc2n1 (10 µM)
inactive: ABL1 = 0 | AKT1 = 0 | ALK 0 | ARAF 0 | AURKA 0 | AURKB 0 | AURKC 0 | BLK 0 | BMX 0 | BRAF 0 | BRAF_V600E 0 | BTK 0 | CAMK2A 0 | CAMK2G 0 | CDK10 = 0 | CDK2 = 0 | CDK3 = 0 | CDK4 = 0 | CDK5 = 0 | CDK6 = 0

NC(=O)c1c(NC(=O)C2CC2)sc2c1CCCC2 (10 µM)
inactive: ABL1 = 0 | AKT1 = 0 | ALK 0 | ARAF 0 | AURKA 0 | AURKB 0 | AURKC 0 | BLK 0 | BMX 0 | BRAF 0 | BRAF_V600E 0 | BTK 0 | CAMK2A 0 | CAMK2G 0 | CDK10 = 0 | CDK2 = 0 | CDK3 = 0 | CDK4 = 0 | CDK5 = 0 | CDK6 = 0

CC(C)n1cnc2c(Nc3cccc(Cl)c3)nc(N[C@H]3CCCC[C@@H]3N)nc21 (2.5 µM)
inactive: ABL1 = 0 | AKT1 = 0 | ALK 0 | ARAF 0 | AURKA 0 | AURKB 0 | AURKC 0 | BLK 0 | BMX 0 | BRAF 0 | BRAF_V600E 0 | BTK 0 | CAMK2A 0 | CAMK2G 0 | CDK10 = 0 | CDK2 = 0 | CDK3 = 0 | CDK4 = 0 | CDK5 = 0 | CDK6 = 0

CN(C[C@@H]1COCCO1)S(=O)(=O)Nc1ccc2ccc3ncc(-c4cnn(C)c4)cc3c(=O)c2c1 (2.5 µM)
inactive: ABL1 = 0 | AKT1 = 0 | ALK 0 | ARAF 0 | AURKA 0 | AURKB 0 | AURKC 0 | BLK 0 | BMX 0 | BRAF 0 | BRAF_V600E 0 | BTK 0 | CAMK2A 0 | CAMK2G 0 | CDK10 = 0 | CDK2 = 0 | CDK3 = 0 | CDK4 = 0 | CDK5 = 0 | CDK6 = 0

CC(C1CC1)n1cnc2c(NCc3cccc(C(F)(F)F)c3)nc(NCCN(C)C)nc21 (stereo not given) (10 µM)
inactive: ABL1 = 0 | AKT1 = 0 | ALK 0 | ARAF 0 | AURKA 0 | AURKB 0 | AURKC 0 | BLK 0 | BMX 0 | BRAF 0 | BRAF_V600E 0 | BTK 0 | CAMK2A 0 | CAMK2G 0 | CDK10 = 0 | CDK2 = 0 | CDK3 = 0 | CDK4 = 0 | CDK5 = 0 | CDK6 = 0

C=CC(=O)Nc1cc(Nc2nccc(-c3cn(C)c4ccccc34)n2)c(OCC(F)(F)F)nc1N(C)CCNC [AST5902  (trimesylate)] (2.5 µM)
inactive: ABL1 = 0 | AKT1 = 0 | ALK 0 | ARAF 0 | AURKA 0 | AURKB 0 | AURKC 0 | BLK 0 | BMX 0 | BRAF 0 | BRAF_V600E 0 | BTK 0 | CAMK2A 0 | CAMK2G 0 | CDK10 = 0 | CDK2 = 0 | CDK3 = 0 | CDK4 = 0 | CDK5 = 0 | CDK6 = 0

CN(C)c1ccc(/C=C2\C(=O)Nc3ccccc32)c2ccccc12 (10 µM)
inactive: ABL1 = 0 | AKT1 = 0 | ALK 0 | ARAF 0 | AURKA 0 | AURKB 0 | AURKC 0 | BLK 0 | BMX 0 | BRAF 0 | BRAF_V600E 0 | BTK 0 | CAMK2A 0 | CAMK2G 0 | CDK10 = 0 | CDK2 = 0 | CDK3 = 0 | CDK4 = 0 | CDK5 = 0 | CDK6 = 0

O=c1cc(N2CCOCC2)oc2c(-c3cccc4c3sc3ccccc34)cccc12 (10 µM)
inactive: ABL1 = 0 | AKT1 = 0 | ALK 0 | ARAF 0 | AURKA 0 | AURKB 0 | AURKC 0 | BLK 0 | BMX 0 | BRAF 0 | BRAF_V600E 0 | BTK 0 | CAMK2A 0 | CAMK2G 0 | CDK10 = 0 | CDK2 = 0 | CDK3 = 0 | CDK4 = 0 | CDK5 = 0 | CDK6 = 0
